Each number is a percent effect as filed.
The record does not define 0% and 100%; most values in the screen are far below 50% and negative numbers occur (in some assays of this library far below -100).
The compounds are a random part of those screened.
Two or more numbers in one place are separate tests of the same structure; such repeats can differ widely.

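Growth of Mycobacterium tuberculosis over 3 days (7H9 medium with glucose and tyloxapol); the read-out is not stated. Tested at 50 µM. Higher reads as more growth inhibition (inferred: compounds with an IC50 in retests scored well above the rest). Of about 69,000 compounds tested this way, about 760 (1.1%) reached 50% or more in at least one test.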

| # | structure | Percent Effect |
|---|---|---|
| 1 | `CCOCC(O)CN1CCN(C(=O)Cc2ccc3c(c2)CCC3)CC1` (stereo not drawn) | -41% |
| 2 | `OC1(CN(Cc2cccnc2)C2CCCCC2)CNCCOC1` (stereo not drawn) | 11.02% |
| 3 | `CN(CCn1nc2ccccn2c1=O)CC(=O)N(C)C1CCCCC1` | 14.7% |
| 4 | `Cc1cc2c(cc1C)OC1(C=C2)CCN(CC(=O)N2CCOCC2)CC1` | -5.303% |
| 5 | `Cc1cc(F)ccc1NCC(=O)NCC(F)(F)F` | -30.92% |
| 6 | `COc1cc(NC(=O)c2cccc(N(C)C)c2)cc(OC)c1` | 25.58% and -3.965% |
| 7 | `CCNC(=O)[C@@H]1C[C@H](N)CN1C(=O)Cc1cc(C)ccc1C` | -3.761% |
| 8 | `O=C1CC(c2ccccc2)C2(CCN(Cc3ccccn3)CC2)N1` (stereo not drawn) | -14.38% |
| 9 | `CCCNC(=O)C1(CC2CC(c3ccccc3OC)=NO2)CCOCC1` (stereo not drawn) | 35.41% |
| 10 | `CC(=O)Nc1ncc(S(=O)(=O)Nc2cccc(F)c2)s1` | -21.04% |
| 11 | `CCOCCCNC(=O)CN(c1ccc(F)c(F)c1)S(C)(=O)=O` | 18.5% |
| 12 | `Cc1cc(NC(=O)c2ccc(N3CCOCC3)c(F)c2)[nH]n1` | -19.47% |
| 13 | `Cc1cc(C2CCCN(S(=O)(=O)c3cn(C)cn3)C2)ccn1` (stereo not drawn) | -7.572% |
| 14 | `Cc1cc(N2CCCN(C(=O)Cc3cccnc3)CC2)ccn1` | -13.26% |
| 15 | `C/C(=C\c1ccco1)CN(C)C(C)c1ccccn1` (stereo not drawn) | -8.783% |
| 16 | `Cc1nn(C)c(C)c1C1COCCN1C(=O)c1cc(F)ccc1F` (stereo not drawn) | -7.082% |
| 17 | `Cc1nc(C)n(CC2CCCN(CCCS(=O)(=O)N(C)C)C2)n1` (stereo not drawn) | -20.08% |
| 18 | `COC(=O)C(NC(=O)CCOC(C)C)c1cc(F)ccc1F` (stereo not drawn) | -1.603% |
| 19 | `CC(C)c1ncc2c(n1)CN(Cc1nc(-c3cccs3)no1)CC2` | -20.02% |
| 20 | `Cc1ccc(C(=O)N(CC2CCCO2)c2ccncc2)o1` (stereo not drawn) | 12.53% |
| 21 | `CC(C)c1cc(C(=O)N2CCN(c3ccncc3)CC2)n(C)n1` | -19.73% |
| 22 | `COCC(=O)N1CCCCC1c1nc(N(C)C)ncc1-c1cc(C)no1` (stereo not drawn) | -44.9% |
| 23 | `CC(=O)Nc1nc(C(=O)N2CCCC2c2noc(C)n2)cs1` (stereo not drawn) | -16.32% |
| 24 | `COCc1nc2cc(NCc3ccc(C)o3)ccc2o1` | 30.88% |
| 25 | `CC(=O)NC(Cc1c[nH]c2cc(F)ccc12)C(=O)Nc1nncs1` (stereo not drawn) | 5.039% |
| 26 | `COc1ccccc1CN1C[C@@H](F)[C@@H](OCc2nc3ccccc3[nH]2)C1` | 11.05% and -1.814% |
| 27 | `Cc1cc(NCc2cn(C)nc2-c2cccnc2)n(C)n1` | -50.33% |
| 28 | `Cc1ccnc(CC(C)N(C)c2cc(CCN)nc(C)n2)c1` (stereo not drawn) | -5.302% |
| 29 | `CCc1nc(C2CCCN2CC(=O)Nc2c(C)nn(C)c2C)no1` (stereo not drawn) | 5.787% and -2.484% |
| 30 | `CCC(CO)N(Cc1ccco1)C(=O)c1ccc(F)cc1Cl` (stereo not drawn) | -14.55% |
| 31 | `CC(=O)N1CCCC(c2cccc(-n3ccnc3)n2)C1` (stereo not drawn) | 10.81% |
| 32 | `CN1CC=C(CCN(C)C(=O)CCc2ccccc2)CC1` | 13.95% |
| 33 | `CCS(=O)(=O)c1ccc(N2CCC(NC(=O)c3cnn(C)c3)CC2)cc1` | 40.21% |
| 34 | `COCC(=O)N[C@@H]1CN(Cc2ccc3c(c2)OCCO3)C[C@H]1O` | 1.915% |
| 35 | `O=C(O)C(F)(F)F.[H][C@@]12COC[C@]1([H])[C@@H](OCC(=O)N(C)C)CN2Cc1c(C)noc1C` | -0.292% |
| 36 | `Cc1ccc(C(=O)N2CCC(c3n[nH]c(C4CC4)n3)CC2)cc1F` | -2.124% |
| 37 | `Cc1cc(Cl)c(C)c(S(=O)(=O)N2CCN(Cc3ccncc3)CC2)c1Cl` | 3.661% |
| 38 | `Cc1cccc(C(=O)N2CCN(c3ccccc3F)CC2)n1` | -33.2% |
| 39 | `CS(=O)(=O)NCc1cn2c(n1)CN(Cc1ccoc1)CC2.O=C(O)C(F)(F)F` | 0.1828% and -44.66% |
| 40 | `CC(C)S(=O)(=O)C(C)C(=O)NCc1ccccc1OCc1ccccc1` (stereo not drawn) | 4.052% |
| 41 | `Cn1ncc2c(N3CC(N4CCCCC4)C3)nc(C3CCCC3)nc21` | -22.07% and 2.016% |
| 42 | `O=C(O)C(F)(F)F.O=C(O)C(F)(F)F.O=C1COC2(COCCN(Cc3cccnc3)C2)CN1c1ccoc1` (stereo not drawn) | 5.339% |
| 43 | `CCn1c(C2CCCN2Cc2noc(C(C)(C)C)n2)nc2ccccc21` (stereo not drawn) | 3.512% |
| 44 | `CC(C)(C)c1nc(CN(Cc2ccccc2Cl)C2CCCC2)no1` | 19.41% |
| 45 | `COc1cccc(CN(C)Cc2[nH]c3ccccc3c2C)c1O` | 6.198% and -18.41% |
| 46 | `O=C(NCC1(CO)CC1)NC(c1nccs1)C1CC1` (stereo not drawn) | 24.77% |
| 47 | `COc1nn(C)c2c1CCCN(S(=O)(=O)c1cccc(F)c1)C2` | 4.586% and 16.36% |
| 48 | `Cc1nc(CN(C)C2CCN(CCCOc3ccccc3)C2)no1` (stereo not drawn) | 30.31% |
| 49 | `CCOCCC(=O)N1CCCN(Cc2csc(CC)n2)CC1` | -26.49% |
| 50 | `CN(C)C(=O)N1CCC(c2nc3ccc(-c4ccccc4)cn3n2)CC1` | 26.44% |
| 51 | `COc1ccccc1CNC(Cc1cccs1)c1nc(C)cs1.Cl` (stereo not drawn) | 3.47% |
| 52 | `O=S(=O)(Nc1cnc(N2CCCC2)nc1)c1ccc(OC(F)(F)F)cc1` | -16.44% |
| 53 | `Cc1nc(C(C)C)sc1C(=O)N1CCN(C2CN3CCC2CC3)CC1` (stereo not drawn) | 19.36% |
| 54 | `Cc1ncsc1C(=O)NCC1SCCc2ccccc21` (stereo not drawn) | -19.16% |
| 55 | `Cc1cnn(C2CCCN(C(=O)c3cccc4c3OCO4)C2)c1` (stereo not drawn) | 15.36% |
| 56 | `OC(COc1ccccc1)CN1CCc2c(ncn2C2CC2)C1` (stereo not drawn) | -3.165% |
| 57 | `[H][C@@]12CCN(C(=O)c3cc(-c4ccco4)nc4c(Cl)cccc34)[C@]1([H])CNC2` | 39.69% |
| 58 | `COc1ccc(C)cc1C(=O)N1C[C@@H](CN(C)CCO)[C@@H](CO)C1` | 10.81% |
| 59 | `Cc1cc(-c2ccc(=O)n(CCNC(=O)C3CCCCC3)n2)c(C)o1` | 10.48% |
| 60 | `Cc1cnn(C2CCCN(C(=O)Cc3ccc4c(c3)CCO4)C2)c1` (stereo not drawn) | -15.67% |
| 61 | `CN(Cc1nnc(-c2ccco2)o1)C1CCCN(c2cccnn2)C1` (stereo not drawn) | -49.74% |
| 62 | `COc1nccc(N2CC[C@@H](N3CCCCCC3)[C@H](O)C2)c1C#N` | 26.02% |
| 63 | `CC(C)[C@H]1CN(Cc2ccccn2)C[C@@H]1NC(=O)CC1CCC1` | -18.72% |

Some entries from above, unchanged:

| structure | Percent Effect |
|---|---|
| `COCC(=O)N1CCCCC1c1nc(N(C)C)ncc1-c1cc(C)no1` (stereo not drawn) | -44.9% |
| `OC1(CN(Cc2cccnc2)C2CCCCC2)CNCCOC1` (stereo not drawn) | 11.02% |
| `COCc1nc2cc(NCc3ccc(C)o3)ccc2o1` | 30.88% |
| `CS(=O)(=O)NCc1cn2c(n1)CN(Cc1ccoc1)CC2.O=C(O)C(F)(F)F` | 0.1828% and -44.66% |

From ChEMBL document CHEMBL3988442, “University of Dundee, Small-Polar-MMV Screening Library” (2021).